{
  "source": "paper PMC3221503",
  "about": "“Study on Cytochrome P-450 Dependent Retinoic Acid Metabolism and its Inhibitors as Potential Agents for Cancer Therapy” (Scientia Pharmaceutica, 2011)",
  "test_system": "cytochrome P-450 dependent retinoic acid metabolism",
  "assay": "RA metabolism assay: in vitro inhibition of retinoic acid metabolism by P-450 inhibitors",
  "conditions": "male, rat, rat liver microsomes, pH 7.4, probe 3H-retinoic acid (RA), 3 μM",
  "data": [
    {"molecule": "Clc1ccc(CSC(Cn2ccnc2)c2ccc(Cl)cc2Cl)cc1", "note": "(stereo not shown) [Sulconazole]", "values": [
      {"measurement": "inhibition at 15 min, 100 μM", "value": 8.7, "unit": "%"}
    ]}
  ]
}
